Among the data in publication doi:10.1101/2025.11.07.687155 are binding values, retold here.

By UniProt entry, the sequences of proteins in these tests, tags left out. Where a name states a change or a piece, a line headed by the entry shows the natural chain unless it says otherwise. Chains listed by the source or under a name are the forms on record and can include a tag or linker. Residues count along the entry.
mini-Nesprin2-mTFP (Q8WXH0, form named): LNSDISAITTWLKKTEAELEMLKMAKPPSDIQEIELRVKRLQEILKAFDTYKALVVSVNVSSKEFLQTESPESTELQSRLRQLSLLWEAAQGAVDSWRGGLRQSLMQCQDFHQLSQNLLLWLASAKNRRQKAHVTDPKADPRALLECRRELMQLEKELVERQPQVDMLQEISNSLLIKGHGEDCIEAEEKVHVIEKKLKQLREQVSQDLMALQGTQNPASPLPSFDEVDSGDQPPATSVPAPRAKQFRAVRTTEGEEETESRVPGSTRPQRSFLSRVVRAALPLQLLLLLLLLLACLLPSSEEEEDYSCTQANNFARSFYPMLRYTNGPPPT
UniProt O14656, residues 21-332: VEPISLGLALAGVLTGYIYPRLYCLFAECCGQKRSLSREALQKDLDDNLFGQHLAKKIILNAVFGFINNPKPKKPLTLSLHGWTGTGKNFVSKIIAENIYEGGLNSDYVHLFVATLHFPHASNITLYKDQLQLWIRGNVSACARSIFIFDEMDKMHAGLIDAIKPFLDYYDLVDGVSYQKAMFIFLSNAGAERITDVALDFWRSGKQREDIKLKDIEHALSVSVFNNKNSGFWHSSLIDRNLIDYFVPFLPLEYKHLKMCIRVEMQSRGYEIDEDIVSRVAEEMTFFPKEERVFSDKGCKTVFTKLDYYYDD

Results are given in words; binding and its absence hold for the method and conditions named. In cells and extracts the contact can be indirect. Some binding calls cover weakened binding; strength is not graded here.

The target in test [1] is mini-Nesprin2-mTFP (human) (UniProt Q8WXH0). Put plainly: FRET or BRET.
Test [2] has as its target Torsin1A-mTFP (human) (UniProt O14656). The experiment in a line: FRET or BRET.

As for “SUN2-Venus (from UniProt Q9UH99-1 1-717)”, in test [1], the binding entry was “binds”.

B1: Venus-CLCC1 (protein, UniProt Q96S66 19-551)
chain: HDDDWIDPTDMLNYDAASGTMRKSQAKYGISGEKDVSPDLSCADEISECYHKLDSLTYKIDECEKKKREDYESQSNPVFRRYLNKILIEAGKLGLPDENKGDMHYDAEIILKRETLLEIQKFLNGEDWKPGALDDALSDILINFKFHDFETWKWRFEDSFGVDPYNVLMVLLCLLCIVVLVATELWTYVRWYTQLRRVLIISFLFSLGWNWMYLYKLAFAQHQAEVAKMEPLNNVCAKKMDWTGSIWEWFRSSWTYKDDPCQKYYELLLVNPIWLVPPTKALAVTFTTFVTEPLKHIGKGTGEFIKALMKEIPALLHLPVLIIMALAILSFCYGAGKSVHVLRHIGGPESEPPQALRPRDRRRQEEIDYRPDGGAGDADFHYRGQMGPTEQGPYAKTYEGRREILRERDVDLRFQTGNKSPEVLRAFDVPDAEAREHPTVVPSHKSPVLDTKPKETGGILGEGTPKESSTESSQSAKPVSGQDTSGNTEGSPAAEKAQLKSEAAGSPDQGSTYSPARGVAGPRGQDPVSSPCG
On to B1, for which the binding entry in test [2] is given as “binds”.
